Some entries share one result that the patent states for a list of compounds. At least one compound was matched to its structure with a doubt left.
System: Erysiphe graminis f. sp. tritici
Assay: Test D: test suspension sprayed on wheat seedlings, inoculated next day with Erysiphe graminis f. sp. tritici (wheat powdery mildew), visual disease rating
Type: in vivo
Details: wheat seedlings sprayed to run-off, inoculated the following day, 20° C. saturated atmosphere for 8 days, test concentration not stated

Row | Structure (SMILES) | disease control (very good to excellent)
1 | Cc1ccccc1C(O)c1ccc(-c2noc(C(F)(F)F)n2)cc1 (racemic) [Compound 497] | ≥ 80%
2 | CCOC(=O)c1cnn(C(C)c2ccc(-c3noc(C(F)(F)F)n3)s2)c1 (racemic) [Compound 192] | ≥ 80%

Reference: US12606548B2, “Fungicidal oxadiazoles” (FMC CORPORATION, priority 2019, dated 2026)
